The source of these data is paper PMC3679036.

The chains behind the UniProt entries cited, without tags or fusion partners. Where a name states a change or a piece, a line headed by the entry shows the natural chain unless it says otherwise. A line that says so, or that is headed by a name, gives the form on record, which may keep a tag or linker.
UniProt P61586: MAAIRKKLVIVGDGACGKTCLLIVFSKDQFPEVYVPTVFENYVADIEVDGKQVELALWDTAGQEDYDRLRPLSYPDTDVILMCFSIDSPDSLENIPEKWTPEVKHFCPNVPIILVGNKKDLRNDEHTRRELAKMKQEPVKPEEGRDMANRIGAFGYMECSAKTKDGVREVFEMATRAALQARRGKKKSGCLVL
HA-tagged dominant negative RhoA (RhoA N19) (P61586, form named): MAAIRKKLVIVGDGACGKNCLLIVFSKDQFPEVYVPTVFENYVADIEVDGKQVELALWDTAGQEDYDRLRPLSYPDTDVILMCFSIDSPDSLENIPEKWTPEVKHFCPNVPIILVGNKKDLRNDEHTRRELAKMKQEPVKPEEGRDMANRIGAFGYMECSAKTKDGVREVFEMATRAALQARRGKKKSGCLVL
HA-tagged constitutively active RhoA (RhoA V14) (P61586, form named): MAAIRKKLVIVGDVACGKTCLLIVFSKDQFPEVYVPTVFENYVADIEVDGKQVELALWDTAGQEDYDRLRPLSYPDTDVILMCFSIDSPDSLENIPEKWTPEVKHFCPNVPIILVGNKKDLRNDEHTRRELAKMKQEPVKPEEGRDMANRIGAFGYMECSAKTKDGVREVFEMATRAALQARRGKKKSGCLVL

Results are given in words; binding and its absence hold for the method and conditions named. In cells and extracts the contact can be indirect. Some results given as binding are weak or reduced against the parent protein; the word gives no strength.

The target in assay [1] is GST-dominant negative RhoA (pGEX-2T-RhoA-T19N) (UniProt P61586). As to the kind of experiment: pull-down; 50 µg purified GST-fusion protein on glutathione-Sepharose beads rotated 1 h at 4°C with precleared total lysate of mouse pancreatic acini (2000-2500 µg; 20 mM HEPES pH 7.5, 100 mM NaCl, 5 mM MgCl2, 1% Triton X-100); eluted with reduced glutathione; blot for RhoGDI1; only the target purified.

Assay [2] deals with GST-constitutively active RhoA (pGEX-4T3-RhoA-Q63L) (UniProt P61586). The description is as above.
In assay [3] the target is HA-tagged constitutively active RhoA (RhoA V14) (UniProt P61586). Nature of the assay: co-IP; acini expressing triple-HA-tagged CA or DN RhoA or Rac1 lysed; anti-HA agarose (clone HA-7) 1 h at 4°C; four washes in RIPA buffer; eluted with HA peptide; blot for endogenous RhoGDI1.
Assay [4] deals with HA-tagged dominant negative RhoA (RhoA N19) (UniProt P61586). The assay is described as above.

B1: RhoGDI1 (endogenous, mouse pancreatic acini) (protein, UniProt Q99PT1 1-204)
chain: MAEQEPTAEQLAQIAAENEEDEHSVNYKPPAQKSIQEIQELDKDDESLRKYKEALLGRVAVSADPNVPNVIVTRLTLVCSTAPGPLELDLTGDLESFKKQSFVLKEGVEYRIKISFRVNREIVSGMKYIQHTYRKGVKIDKTDYMVGSYGPRAEEYEFLTPMEEAPKGMLARGSYNIKSRFTDDDKTDHLSWEWNLTIKKEWKD
Consider B1, for which the binding entry is recorded as “binds” in assay [1], “no binding” in assay [2], “no binding” in assay [3] and “binds” in assay [4].
